Test results as given in US9475843B2 (Zhejiang University, priority 2015, dated 2016).
HELM strings list residues between dots; [ac] is acetyl, [am] amide, other brackets name non-standard units.

Experiment: peptide synthesis
Conditions: whole synthesis

In the case of “PEPTIDE1{V.K.F.F.R.K.L.K.K.S.V.K.E.K.I.G.K.E.F.K.R}$$$$V2.0”, the “final HPLC purity” value was “higher than 95%”.
